“And” between values parts separate entries of the source, which are not always exact repeats. Equal entries are not always repeated. Hit rate of the full screen: of about 580,000 compounds, about 6,100 (1.1%) were called active. The inconclusive results got no clear call from the source; some entries with a clear call stand among them for comparison. The call rests on the fitted dose curve; in most records, active means well fitted inhibition curve with a large enough effect; inconclusive means small, poorly fitted or top-dose-only effect, or another doubt; inactive means no such curve, though single readings can be large or run the other way. A potency beside an inconclusive call is a rough fit, not a confirmed value.
molecular target: Polyunsaturated fatty acid lipoxygenase ALOX12 (Homo sapiens) (UniProt P18054); experiment: Primary qHTS assay for inhibitors of human arachidonate 12S-lipoxygenase (ALOX12): Round 2; details: purified 12hLO, xylenol orange hydroperoxide absorbance; activity change, negative = inhibition: at 108 µM (top of the series) unless noted
Summary of the method: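 Hydroperoxide product was detected by ferrous iron/xylenol orange as the 573 to 405 nm absorbance ratio. Arachidonic acid at 40 uM (final) was turned over for 30 min at room temperature by 150 nM human 12hLO, pH 7.0 Hepes buffer, after 15 min compound preincubation.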
On the % scale 0 is the no-effect control and ±100 the full control effect; potency means the concentration at half of the fitted maximal effect.

Protein sequences, listed by entry. Tags and fused reporters are not part of them. Lines headed by an entry give the natural chain unless they say otherwise; changes in a name come on top.
UniProt P18054: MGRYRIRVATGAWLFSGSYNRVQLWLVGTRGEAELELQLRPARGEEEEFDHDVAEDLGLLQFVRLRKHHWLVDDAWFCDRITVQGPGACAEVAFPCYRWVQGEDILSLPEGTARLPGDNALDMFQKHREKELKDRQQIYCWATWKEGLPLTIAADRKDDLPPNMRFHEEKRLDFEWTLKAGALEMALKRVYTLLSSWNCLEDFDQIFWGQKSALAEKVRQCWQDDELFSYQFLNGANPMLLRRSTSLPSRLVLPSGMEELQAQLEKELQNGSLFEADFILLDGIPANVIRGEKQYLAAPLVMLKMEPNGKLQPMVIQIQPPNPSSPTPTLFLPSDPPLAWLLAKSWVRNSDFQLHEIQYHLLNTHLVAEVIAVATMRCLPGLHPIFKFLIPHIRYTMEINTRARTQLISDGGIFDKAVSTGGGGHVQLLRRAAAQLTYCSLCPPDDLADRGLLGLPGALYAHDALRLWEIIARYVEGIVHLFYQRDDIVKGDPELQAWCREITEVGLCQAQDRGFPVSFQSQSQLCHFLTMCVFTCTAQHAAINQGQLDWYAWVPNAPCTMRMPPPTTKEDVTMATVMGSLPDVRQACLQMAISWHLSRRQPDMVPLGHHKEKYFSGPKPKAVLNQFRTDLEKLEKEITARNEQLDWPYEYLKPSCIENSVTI

Structure (SMILES)	Potency	activity change, negative = inhibition
Cc1cc(SCC(=O)N(CC(C)C)c2c(N)n(CC(C)C)c(=O)[nH]c2=O)nc2ccccc12	inconclusive: 112 µM [inhibitor, partial curve, poor fit]	
Cc1cc(C)nc(/N=C(\NC(=O)C(C)(C)C)Nc2ccc(F)cc2)n1		inactive: 9.83%
COc1ccc2c(CN3CCN(c4ccccc4OC)CC3)cc(=O)oc2c1	inconclusive: 31.6 µM [inhibitor, partial curve, poor fit]	
CC(C)=CCC/C(C)=C/C=N/NC(=S)Nc1ccc(C)cc1	inconclusive: 44.7 µM [inhibitor, partial curve, poor fit]	
CCOCC1(C)COc2ccc(C(=O)Nc3ccccn3)cc2N1 (stereo not given)		inactive: 51.9% [at 176 µM]
CN1C(=O)[C@H]2[C@@H](/C=C/c3ccccc3)N3C(=O)CN(Cc4ccc(-c5ccccc5)cc4)C(=O)[C@@]3(C)[C@H]2C1=O	inconclusive: 31.6 µM [inhibitor, single point]	
CS(=O)(=O)N1CC(=O)N2[C@@H](CO)[C@H](c3ccc(Br)cc3)[C@@H]2C1	inconclusive: 22.4 µM [inhibitor, partial curve, poor fit]	
O=C(CN1CCN(S(=O)(=O)N2CCCCC2)CC1)Nc1ccc(Cl)c(Cl)c1		inactive: -8.2%
Cn1c2ccccc2n2c(=O)c(Cl)c(-c3ccccc3)c(C#N)c12		inactive: -1.45%
O=C(OC1CCCCC1=O)c1cccc(S(=O)(=O)N2CCOCC2)c1 (stereo not given)		inactive: -14.7%
CCOC(=O)C1=C(COC(=O)COc2ccc(C#N)cc2)NC(=O)NC1C (stereo not given)	inconclusive: 112 µM [inhibitor, single point]	
CCOC(=O)C1CCCN(C2=C(NS(=O)(=O)c3ccc(Br)cc3)C(=O)c3ccccc3C2=O)C1 (stereo not given)	inconclusive: 31.6 µM [inhibitor, partial curve, poor fit]	
CC(NS(=O)(=O)c1ccccc1)c1n[nH]c(=S)n1-c1ccccc1 (stereo not given)	inconclusive: 112 µM [inhibitor, single point]	
Cc1c(Cl)cccc1N1CC(c2nc3ccccc3n2C(C)C)CC1=O (stereo not given)		inactive: -16.3%
Cc1ccc(S(=O)(=O)N2C[C@@H](C(N)=O)[C@H](C3CCN(C)CC3)C2)cc1Cl	inconclusive: 12.6 µM [inhibitor, full curve]	
COC(=O)c1ccn(Cc2ccc(Cl)cc2Cl)n1		inactive: 16.6%
Cc1cc(C(F)F)n2nc(C(=O)Nc3cc(C)on3)nc2n1	inconclusive: 35.5 µM [inhibitor, full curve, poor fit]	
O=C(NCCCN1CCCC1)c1ccc(Cn2c(=S)[nH]c3ccc(Br)cc3c2=O)cc1	inconclusive: 50.1 µM [inhibitor, partial curve, poor fit]	
Cc1ccc(-c2ccc(/C=C/C(=O)c3ccc(Cl)cc3)o2)cc1Cl	inconclusive: 8.91 µM [inhibitor, full curve]	
O=CN/C=C/c1cc(O)ccc1O	inconclusive: 7.94 µM [inhibitor, partial curve, poor fit]	
S=c1[nH]nc(-c2cccs2)n1C1CCCCC1	inconclusive: 126 µM [inhibitor, partial curve, poor fit]	
COc1ccc(N=C2C(=S)N(c3ccc(OC)cc3)C(=NS(=O)(=O)c3ccccc3)N2c2ccccc2)cc1	inconclusive: 14.1 µM [inhibitor, full curve]	

Structure (SMILES)	Potency	activity change, negative = inhibition
CC(=O)N1CCN(c2ccc(NCc3ccc(C(C)C)cc3)cc2)CC1	inconclusive: 35.5 µM [inhibitor, partial curve, poor fit]	
COc1ccc(-c2nc3ccc(NS(=O)(=O)c4ccc(C)cc4)cc3o2)cc1	inconclusive: 50.1 µM [inhibitor, partial curve, poor fit]	
CS(=O)(=O)N1N=C(c2ccco2)CC1c1ccco1 (stereo not given)	inconclusive: 251 µM [inhibitor, partial curve, poor fit]	
CN(Cc1ccc(C(F)(F)F)cc1)C(=O)[C@H]1O[C@@H](n2cnc3c(N)ncnc32)[C@H](O)[C@@H]1O	inconclusive: 0.891 µM [inhibitor, full curve, poor fit]	
COc1ccc(NC(=O)CN(C)C(=O)c2nn(C)c(=O)c3ccccc23)cc1		inactive: -24.7%
Cc1cc(C(=O)c2cc3ccccc3o2)c(C)s1		inactive: 13.7%
CN(C)C(=O)CSc1nc2ccccc2n1CC(=O)N1CCN(c2ccccc2)CC1		inactive: -5.74%
CC(C)c1cc(C(N)=O)c(NC(=O)Cc2c(F)cccc2Cl)s1	inconclusive: 3.16 µM [inhibitor, full curve, poor fit]	
Cc1ccc(Cn2c(C(=O)NCc3ccccc3Cl)cc3sccc32)cc1	inconclusive: 50.1 µM [inhibitor, partial curve, poor fit]	
CCC1=C(c2ccc(C)cc2)S(=O)(=O)N=C1N1CCC(C(=O)Nc2ccccc2F)CC1	inconclusive: 50.1 µM [inhibitor, partial curve, poor fit]	
COC(=O)c1c(SCC(=O)Nc2cc(OC)cc(OC)c2)[nH]c2ccc(C)cc2c1=O		inactive: -5.78%
CSCCC(NC(=O)c1ccc(Cl)cc1)C(=O)OCC(C)=O (stereo not given)		inactive: -0.848%
Cc1cc(CN2CCN(c3ccccc3F)CC2)cs1	inconclusive: 39.8 µM [inhibitor, partial curve] and inconclusive: 25.1 µM [inhibitor, partial curve, poor fit]	
Cc1nc(NC(=O)CCc2ccccc2)sc1C	inconclusive: 39.8 µM [inhibitor, partial curve, poor fit]	
COc1ccc(CNC(=O)c2cc(C3CC3)nc3c2cnn3C(C)C)cc1		inactive: -28.6%
O=S(=O)(Nc1ccon1)c1ccc(Br)s1	inconclusive: 56.2 µM [inhibitor, partial curve, poor fit]	
COc1ccc(S(=O)(=O)N2CCCC(c3nn[nH]n3)C2)cc1 (stereo not given)		inactive: 1.12%
Cc1ccc(C(=O)N/C(=C/c2ccco2)C(=O)N2CCCCC2)cc1	inconclusive: 35.5 µM [inhibitor, partial curve, poor fit]	
COc1cc2[nH]c(=S)nc(NCCC(C)C)c2cc1OC	inconclusive: 89.1 µM [inhibitor, partial curve, poor fit]	
COc1cc(OC)c(C2=CCN(C(=O)COc3ccc(C)cc3Br)CC2)c(OC)c1	inconclusive: 0.891 µM [inhibitor, partial curve, poor fit]	
COc1ccc(NC(=O)COc2ccc3c(C)cc(=O)oc3c2C)cc1	inconclusive: 56.2 µM [inhibitor, partial curve, poor fit]	
CCC(C)(C)C1CCC(=NNC(=S)Nc2ccccc2)CC1 (stereo not given)	inconclusive: 35.5 µM [inhibitor, full curve, poor fit]	

Record cards, as listed above.
Cc1ccc(Cn2c(C(=O)NCc3ccccc3Cl)cc3sccc32)cc1 in the list: Potency: inconclusive: 50.1 µM [inhibitor, partial curve, poor fit]
COc1ccc(CNC(=O)c2cc(C3CC3)nc3c2cnn3C(C)C)cc1 in the list: activity change, negative = inhibition: inactive: -28.6%
CCC1=C(c2ccc(C)cc2)S(=O)(=O)N=C1N1CCC(C(=O)Nc2ccccc2F)CC1 in the list: Potency: inconclusive: 50.1 µM [inhibitor, partial curve, poor fit]
CC(=O)N1CCN(c2ccc(NCc3ccc(C(C)C)cc3)cc2)CC1 in the list: Potency: inconclusive: 35.5 µM [inhibitor, partial curve, poor fit]

(cont.)

Structure (SMILES)	Potency	activity change, negative = inhibition
CCOC(=O)C1=C(c2ccccc2)NC(SC)=C(C#N)C1c1ccco1 (stereo not given)	inconclusive: 50.1 µM [inhibitor, partial curve, poor fit]	
COc1ccc(C=NNC(=O)c2ccccc2OCc2ccc(F)cc2)c(OC)c1	inconclusive: 14.1 µM [inhibitor, single point]	
Cc1ccc(NC(=S)N2CCN(S(=O)(=O)c3c(F)cccc3F)CC2)cc1C	inconclusive: 44.7 µM [inhibitor, partial curve, poor fit]	
Cc1ccc(C(=O)C2=C(O)C(=O)N(Cc3ccco3)C2c2ccc(N(C)C)cc2)o1 (stereo not given)		inactive: 62.8%
Cc1n[nH]c(=O)c2c(NC(=O)CSc3cc(Cl)ccc3Cl)oc(C)c12	inconclusive: 100 µM [inhibitor, single point]	
O=C(NNC1=NCCCCC1)Nc1ccc(Cl)cc1	inconclusive: 112 µM [inhibitor, single point]	
C=CCNc1nc2c(c(=O)[nH]c(=O)n2C)n1Cc1ccccc1Cl		inactive: -11.4%
O=C(CCc1ccccc1)NNC(=S)NC(=O)c1ccccc1	inconclusive: 35.5 µM [inhibitor, partial curve, poor fit]	
CC(SC1CCCC1)C(=O)Nc1cccc(C#N)c1 (stereo not given)		inactive: -1.65%
COc1ccc(Nc2oc(-c3ccco3)nc2S(=O)(=O)c2ccc(F)cc2)cc1	inconclusive: 11.2 µM [inhibitor, full curve, poor fit]	
O=C(c1cc2ccccc2oc1=O)N(Cc1cccc(Cl)c1)Cc1ccco1		inactive: -6.75%
COC(=O)[C@]1(CC(C)C)N[C@H](c2ccc(-c3cccc(Cl)c3)cc2)[C@@H]2C(=O)N(C)C(=O)[C@@H]21	inconclusive: 2.24 µM [inhibitor, full curve, poor fit]	
CCCCNC(=O)CN1CCN(c2ccc(NS(=O)(=O)c3cccs3)cc2C(=O)O)CC1	inconclusive: 31.6 µM [inhibitor, single point]	
COc1ccccc1N1CCN(C(=O)c2cccc3c(=O)c(C)c(-c4ccccc4)oc23)CC1		inactive: -3.69%
CC(C)Oc1ccccc1NC(=O)CSc1nc2ccccc2c(=O)n1C		inactive: 417%
CCN(CC)CCNS(=O)(=O)c1ccc(Cl)cc1	inconclusive: 56.2 µM [inhibitor, partial curve, poor fit]	
O=C1CSc2ccc(S(=O)(=O)N3CCCCCC3)cc2N1	inconclusive: 56.2 µM [inhibitor, single point]	
COc1cc2c(cc1OC)C1(NCC2)C(=O)Nc2ccccc21 (stereo not given)		inactive: -14.7%
CC(C)NC(=O)c1ccccc1-c1ncc(-c2ccc(F)cc2)o1		inactive: 2.7%
O=C(NCc1ccccc1)N1CCN2C(=O)NC[C@H]2C1	inconclusive: 3.16 µM [inhibitor, full curve, poor fit]	
O=C(COc1c(I)cc(Cl)c2cccnc12)NCC1CC1	inconclusive: 3.16 µM [inhibitor, single point]	
